# This is one part of the list.
# Assays:
# Test in all cases: glycan array binding signal (z-score within array); higher = stronger binding
# Conditions in all cases: glycan notation: IUPAC condensed, linker removed
# [1] = target: Gal(b1-4)GlcNAc(b1-2)Man(a1-6)[Man(a1-3)]Man(b1-4)GlcNAc(b1-4)GlcNAc
# Method in brief: (§1)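 Glycan array binding is given as a within-array Z-score, which can be read as non-binding when negative. The arrays, 3228 of them, came from the Consortium for Functional Glycomics database and were retained only where the protein sequence was available. Z-scores were averaged across arrays of the same protein sequence at different concentrations or buffers and across linkers.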
# [2] = target: Gal(b1-4)GlcNAc(b1-2)[Gal(b1-4)GlcNAc(b1-4)]Man(a1-3)[Gal(b1-4)GlcNAc(b1-2)Man(a1-6)]Man(b1-4)GlcNAc(b1-4)GlcNAc
# Method in brief: as §1
# [3] = target: Gal(b1-4)GlcNAc(b1-2)[Gal(b1-4)GlcNAc(b1-4)]Man(a1-3)[Gal(b1-4)GlcNAc(b1-2)[Gal(b1-4)GlcNAc(b1-6)]Man(a1-6)]Man(b1-4)GlcNAc(b1-4)GlcNAc
# Method in brief: as §1
# [4] = target: Gal(b1-4)GlcNAc(b1-2)[Gal(b1-4)GlcNAc(b1-4)]Man(a1-3)[GlcNAc(b1-4)][Gal(b1-4)GlcNAc(b1-2)Man(a1-6)]Man(b1-4)GlcNAc(b1-4)GlcNAc
# Method in brief: as §1
# [5] = target: Gal(b1-4)GlcNAc(b1-2)[Gal(b1-4)GlcNAc(b1-4)]Man(a1-3)[GlcNAc(b1-4)][Gal(b1-4)GlcNAc(b1-2)[Gal(b1-4)GlcNAc(b1-6)]Man(a1-6)]Man(b1-4)GlcNAc(b1-4)GlcNAc
# Method in brief: as §1
# [6] = target: Gal(b1-4)GlcNAc(b1-2)[Gal(b1-4)GlcNAc(b1-6)]Man(a1-6)[Gal(b1-4)GlcNAc(b1-2)Man(a1-3)]Man(b1-4)GlcNAc(b1-4)GlcNAc
# Method in brief: as §1
# [7] = target: Gal(b1-4)GlcNAc(b1-2)[Gal(b1-4)GlcNAc(b1-6)]Man(a1-6)[Gal(b1-4)GlcNAc(b1-2)Man(a1-3)]Man(b1-4)GlcNAc(b1-4)[Fuc(a1-6)]GlcNAc
# Method in brief: as §1
# [8] = target: Gal(b1-4)GlcNAc(b1-2)[Gal(b1-4)GlcNAc(b1-6)]Man(a1-6)[GlcNAc(b1-4)][Gal(b1-4)GlcNAc(b1-2)Man(a1-3)]Man(b1-4)GlcNAc(b1-4)GlcNAc
# Method in brief: as §1
# [9] = target: Gal(b1-4)GlcNAc(b1-2)[Gal(b1-4)GlcNAc(b1-6)]Man(a1-6)[GlcNAc(b1-4)][Gal(b1-4)GlcNAc(b1-2)[Gal(b1-4)GlcNAc(b1-4)]Man(a1-3)]Man(b1-4)GlcNAc(b1-4)[Fuc(a1-6)]GlcNAc
# Method in brief: as §1
# [10] = target: Gal(b1-4)GlcNAc(b1-3)Gal(b1-3)GalNAc
# Method in brief: as §1
# [11] = target: Gal(b1-4)GlcNAc(b1-3)Gal(b1-3)GlcNAc
# Method in brief: as §1
# [12] = target: Gal(b1-4)GlcNAc(b1-3)Gal(b1-4)Glc
# Method in brief: as §1
# [13] = target: Gal(b1-4)GlcNAc(b1-3)Gal(b1-4)GlcNAc
# Method in brief: as §1
# [14] = target: Gal(b1-4)GlcNAc(b1-3)Gal(b1-4)GlcNAc(b1-2)Man(a1-3)[Gal(b1-4)GlcNAc(b1-3)Gal(b1-4)GlcNAc(b1-2)Man(a1-6)]Man(b1-4)GlcNAc(b1-4)GlcNAc
# Method in brief: as §1
# [15] = target: Gal(b1-4)GlcNAc(b1-3)Gal(b1-4)GlcNAc(b1-2)Man(a1-3)[Gal(b1-4)GlcNAc(b1-3)Gal(b1-4)GlcNAc(b1-2)Man(a1-6)]Man(b1-4)GlcNAc(b1-4)[Fuc(a1-6)]GlcNAc
# Method in brief: as §1
# [16] = target: Gal(b1-4)GlcNAc(b1-3)Gal(b1-4)GlcNAc(b1-2)[Gal(b1-4)GlcNAc(b1-3)Gal(b1-4)GlcNAc(b1-6)]Man(a1-6)[Gal(b1-4)GlcNAc(b1-3)Gal(b1-4)GlcNAc(b1-2)Man(a1-3)]Man(b1-4)GlcNAc(b1-4)GlcNAc
# Method in brief: as §1
# [17] = target: Gal(b1-4)GlcNAc(b1-3)Gal(b1-4)GlcNAc(b1-2)[Gal(b1-4)GlcNAc(b1-3)Gal(b1-4)GlcNAc(b1-6)]Man(a1-6)[Gal(b1-4)GlcNAc(b1-3)Gal(b1-4)GlcNAc(b1-2)Man(a1-3)]Man(b1-4)GlcNAc(b1-4)[Fuc(a1-6)]GlcNAc
# Method in brief: as §1
# [18] = target: Gal(b1-4)GlcNAc(b1-3)Gal(b1-4)GlcNAc(b1-3)Gal(b1-4)GlcNAc
# Method in brief: as §1
binder,measurement,setting,value
Thrombomodulin Lectin (Mus musculus) (protein) LSALAKLQPTGSQCVEHECFALFQGPATFLDASQACQRLQGHLMTVRSSVAADVISLLLSQSSMDLGPWIGLQLPQGCDDPVHLGPLRGFQWVTGDNHTSYSRWARPNDQTAPLCGPLCVTVSTATEAAPGEPAWEEKPCETETQGFLCEFYFTASCRVDPIPVREDTKEEEGAGEPPVSPTPGSPTGPPSARPVLDEPRVPITQNPCPPLKECPPCAAPDLEGGPSVFIFPPKIKDVLMISLSPMVTCVVVDVSEDDPDVQISWFVNNVEVHTAQTQTHREDYNSTLRVVSALPIQHQDWMSGKAFACAVNNRALPSPIEKTISKPRGPVRAPQVYVLPPPAEEMTKKEFSLTCMITGFLPAEIAVDWTSNGRTEQNYKNTATVLDSDGSYFMYSKLRVQKSTWERGSLFACSVVHEGLHNHLTTKTISRSLGK,glycan array binding signal (z-score),[1],0.659
same,glycan array binding signal (z-score),[2],2.75
same,glycan array binding signal (z-score),[3],-1.05
same,glycan array binding signal (z-score),[4],-0.678
same,glycan array binding signal (z-score),[5],-0.59
same,glycan array binding signal (z-score),[6],1.04
same,glycan array binding signal (z-score),[7],-0.089
same,glycan array binding signal (z-score),[8],-0.306
same,glycan array binding signal (z-score),[9],-0.699
same,glycan array binding signal (z-score),[10],0.228
same,glycan array binding signal (z-score),[11],-1.68
same,glycan array binding signal (z-score),[12],-0.492
same,glycan array binding signal (z-score),[13],-0.416
same,glycan array binding signal (z-score),[14],1.18
same,glycan array binding signal (z-score),[15],1.18
same,glycan array binding signal (z-score),[16],-0.241
same,glycan array binding signal (z-score),[17],-0.263
same,glycan array binding signal (z-score),[18],0.37

# Reprinted at random: two records from the list
binder,measurement,setting,value
Thrombomodulin Lectin (Mus musculus) (protein) LSALAKLQPTGSQCVEHECFALFQGPATFLDASQACQRLQGHLMTVRSSVAADVISLLLSQSSMDLGPWIGLQLPQGCDDPVHLGPLRGFQWVTGDNHTSYSRWARPNDQTAPLCGPLCVTVSTATEAAPGEPAWEEKPCETETQGFLCEFYFTASCRVDPIPVREDTKEEEGAGEPPVSPTPGSPTGPPSARPVLDEPRVPITQNPCPPLKECPPCAAPDLEGGPSVFIFPPKIKDVLMISLSPMVTCVVVDVSEDDPDVQISWFVNNVEVHTAQTQTHREDYNSTLRVVSALPIQHQDWMSGKAFACAVNNRALPSPIEKTISKPRGPVRAPQVYVLPPPAEEMTKKEFSLTCMITGFLPAEIAVDWTSNGRTEQNYKNTATVLDSDGSYFMYSKLRVQKSTWERGSLFACSVVHEGLHNHLTTKTISRSLGK,glycan array binding signal (z-score),[2],2.75
same,glycan array binding signal (z-score),[4],-0.678

# Source: the supplement of paper PMC8728848
